Assay results as given in publication doi:10.1101/2021.05.25.445488.
Read-outs that look alike come from different tables or passages of the source. These are yes or no findings as the source states them, for the method shown. Binding seen in cells or lysates may run through a third protein. Some binding calls cover weakened binding; strength is not graded here.

Amino acid sequences for entries named in this document (tags omitted). A change or cut given only in a name is not applied to a line headed by its entry. Chains listed by the source or under a name are the forms on record and can include a tag or linker. Residues count along the entry.
UniProt O75386: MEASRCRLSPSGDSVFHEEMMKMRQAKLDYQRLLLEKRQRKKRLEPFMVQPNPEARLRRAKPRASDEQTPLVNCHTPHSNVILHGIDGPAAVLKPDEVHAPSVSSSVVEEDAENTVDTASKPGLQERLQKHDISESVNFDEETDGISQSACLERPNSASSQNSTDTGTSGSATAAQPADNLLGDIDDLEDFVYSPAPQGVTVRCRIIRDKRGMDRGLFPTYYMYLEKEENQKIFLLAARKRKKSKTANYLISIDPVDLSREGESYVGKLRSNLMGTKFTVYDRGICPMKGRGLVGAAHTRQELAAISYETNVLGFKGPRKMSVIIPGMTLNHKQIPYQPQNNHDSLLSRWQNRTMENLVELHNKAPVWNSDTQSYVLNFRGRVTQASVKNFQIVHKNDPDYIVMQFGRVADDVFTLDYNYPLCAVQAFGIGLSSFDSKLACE
Myc-ARL13B D2 (1-244 aa) (Q3SXY8, residues 1-244): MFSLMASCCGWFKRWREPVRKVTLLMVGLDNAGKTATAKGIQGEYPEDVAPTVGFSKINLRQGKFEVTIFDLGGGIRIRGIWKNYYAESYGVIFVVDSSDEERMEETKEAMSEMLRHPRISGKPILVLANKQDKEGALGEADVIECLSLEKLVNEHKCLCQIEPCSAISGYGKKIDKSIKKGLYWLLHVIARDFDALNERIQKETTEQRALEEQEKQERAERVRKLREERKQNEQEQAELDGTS
Myc-ARL13B D5 (245-428 aa) (Q3SXY8, residues 245-428): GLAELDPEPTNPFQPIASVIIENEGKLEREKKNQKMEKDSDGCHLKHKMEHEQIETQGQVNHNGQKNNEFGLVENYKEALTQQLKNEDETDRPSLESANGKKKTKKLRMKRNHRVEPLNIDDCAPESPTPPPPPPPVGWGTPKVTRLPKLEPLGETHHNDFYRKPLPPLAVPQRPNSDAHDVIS
Myc-ARL13B D6 (362-428) (Q3SXY8, residues 362-428): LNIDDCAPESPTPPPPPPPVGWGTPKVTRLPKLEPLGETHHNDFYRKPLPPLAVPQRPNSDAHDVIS
Myc-ARL13B V359A (Q3SXY8-1, form named): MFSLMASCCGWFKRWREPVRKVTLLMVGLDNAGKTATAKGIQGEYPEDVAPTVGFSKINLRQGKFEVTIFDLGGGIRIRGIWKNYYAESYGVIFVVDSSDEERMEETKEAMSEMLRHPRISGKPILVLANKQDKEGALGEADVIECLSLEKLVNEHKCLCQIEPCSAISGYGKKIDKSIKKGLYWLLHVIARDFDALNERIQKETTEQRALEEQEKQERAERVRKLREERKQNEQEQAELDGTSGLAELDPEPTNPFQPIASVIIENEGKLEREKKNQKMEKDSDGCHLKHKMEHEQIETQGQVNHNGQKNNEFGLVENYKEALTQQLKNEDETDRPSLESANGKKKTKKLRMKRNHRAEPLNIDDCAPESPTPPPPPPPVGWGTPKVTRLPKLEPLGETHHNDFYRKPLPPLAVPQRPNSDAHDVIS

What was measured:
[1] = target: GST-TULP3 full length (human) (UniProt O75386); assay: pull-down
[2] = target: GST-TULP3 full length (human) (UniProt O75386); assay: pull-down; remark: listed apart in the source

Row | Substance | binding [1] | binding [2]
1 | Myc-ARL13B full length, in vitro translated (from UniProt Q3SXY8-1 1-428) | binds | binds
2 | Myc-ARL13B D6 (362-428) (from UniProt Q3SXY8-1 362-428) (domain or fragment) |  | no binding
3 | Myc-ARL13B D5 (245-428 aa) (from UniProt Q3SXY8-1 245-428) (domain or fragment) |  | no binding

Continued, values first:

Row | binding [1] | binding [2] | Substance
4 |  | binds | Myc-ARL13B V359A (from UniProt Q3SXY8-1 1-428)
5 |  | binds | Myc-ARL13B D2 (1-244 aa) (from UniProt Q3SXY8-1 1-244) (domain or fragment)
